These are yes or no findings as the source states them, for the method shown. For part of these data: Binding calls can cover weak binding; strength is not graded here. Where a sequence is shown, tags or fusion partners need not be part of it.
Columns and labels:
[1] = biological target: N-terminal MalE-tagged SgmX (MalE-SgmX^D2-L1060) (Myxococcus xanthus); assay: pull-down; MalE or MalE-SgmX fusions preimmobilised on amylose resin; purified MglA-His6 preincubated with GDP loaded; flow-through, washes and elution on SDS-PAGE, Coomassie blue staining; both purified
[2] = biological target: MalE-TPR12-14 (MalE-SgmX^A813-L1060) (Myxococcus xanthus); assay: as above
[3] = biological target: MalE-SgmX^ΔTPR12-14 (MalE-SgmX^D2-D853) (Myxococcus xanthus); assay: as above
[4] = biological target: N-terminal MalE-tagged SgmX (MalE-SgmX^D2-L1060) (Myxococcus xanthus); assay: pull-down; MalE or MalE-SgmX fusions preimmobilised on amylose resin; purified MglA-His6 preincubated with GTP loaded; flow-through, washes and elution on SDS-PAGE, Coomassie blue staining; both purified
[5] = biological target: MalE-TPR12-14 (MalE-SgmX^A813-L1060) (Myxococcus xanthus); assay: as above
[6] = biological target: MalE-SgmX^ΔTPR12-14 (MalE-SgmX^D2-D853) (Myxococcus xanthus); assay: as above

binding [3]: no binding | binding [4]: binds | binding [5]: binds | binding [6]: no binding
B1: C-terminal His6-tagged MglA (MglA-His6) (protein, UniProt Q1DB04 1-195)
chain: MSFINYSSREINCKIVYYGPGLCGKTTNLQYIYNKTAAETKGKLISLSTETDRTLFFDFLPLSLGEIRGFKTRFHLYTVPGQVFYDASRKLILKGVDGVVFVADSQIERMEANMESLENLRINLAEQGYDLNKIPYVIQYNKRDLPNAVTVEEMRKALNHRNIPEYQAVAPTGVGVFDTLKAVAKLVLTELKKGG
binding [1]: no binding (only MglA preincubated with GDP) | binding [2]: no binding (only MglA preincubated with GDP)
